In the M2OR odorant receptor database:
The entries are a selection whose mix differs from that of the whole data set. The calls were merged from several studies; some rest on single wells.

Tests used:
Conditions in all cases: stereoisomer not certain
[1] = target: T1, UniProt Q8VGH1
T1 sequence (whole entry): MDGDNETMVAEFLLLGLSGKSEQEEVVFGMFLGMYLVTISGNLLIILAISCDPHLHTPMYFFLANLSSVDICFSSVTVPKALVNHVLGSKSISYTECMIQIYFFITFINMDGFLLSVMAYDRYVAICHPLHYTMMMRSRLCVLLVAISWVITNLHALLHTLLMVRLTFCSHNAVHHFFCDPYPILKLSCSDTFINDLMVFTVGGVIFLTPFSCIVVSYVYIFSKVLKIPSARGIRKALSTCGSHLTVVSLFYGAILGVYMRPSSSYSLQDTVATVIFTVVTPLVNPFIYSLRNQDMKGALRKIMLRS
Method in brief: (§1)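 Whether a receptor–molecule pair is responsive (active) rests on the original authors' judgment that its measured signal was statistically different from baseline. Pairs without that judgment are non-responsive (inactive). Sources used varied assay methods, commonly transient luciferase assays in mammalian cell lines.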

[2] = target: T2, UniProt Q8VGJ1
T2 sequence (whole entry): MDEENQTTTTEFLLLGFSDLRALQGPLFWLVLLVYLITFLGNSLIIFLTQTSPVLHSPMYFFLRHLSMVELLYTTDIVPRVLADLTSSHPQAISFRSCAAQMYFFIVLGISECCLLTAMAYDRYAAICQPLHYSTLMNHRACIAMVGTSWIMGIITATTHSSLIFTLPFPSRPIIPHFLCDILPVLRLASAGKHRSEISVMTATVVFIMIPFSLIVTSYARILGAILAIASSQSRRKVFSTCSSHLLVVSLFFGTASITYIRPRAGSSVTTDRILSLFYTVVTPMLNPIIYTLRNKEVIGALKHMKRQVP
Method in brief: as §1

[3] = target: T3, UniProt Q8VGJ3
T3 sequence (whole entry): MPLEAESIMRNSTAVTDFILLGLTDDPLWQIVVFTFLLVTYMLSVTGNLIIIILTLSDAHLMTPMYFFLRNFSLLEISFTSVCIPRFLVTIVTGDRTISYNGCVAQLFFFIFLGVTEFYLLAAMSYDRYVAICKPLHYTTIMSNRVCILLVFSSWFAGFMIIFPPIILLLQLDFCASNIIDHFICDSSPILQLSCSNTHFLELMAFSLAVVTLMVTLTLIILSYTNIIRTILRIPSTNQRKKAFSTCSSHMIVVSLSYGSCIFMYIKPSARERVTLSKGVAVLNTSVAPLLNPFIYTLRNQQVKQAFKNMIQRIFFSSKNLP
Method in brief: as §1

[4] = target: T4, UniProt Q8VGJ5
T4 sequence (whole entry): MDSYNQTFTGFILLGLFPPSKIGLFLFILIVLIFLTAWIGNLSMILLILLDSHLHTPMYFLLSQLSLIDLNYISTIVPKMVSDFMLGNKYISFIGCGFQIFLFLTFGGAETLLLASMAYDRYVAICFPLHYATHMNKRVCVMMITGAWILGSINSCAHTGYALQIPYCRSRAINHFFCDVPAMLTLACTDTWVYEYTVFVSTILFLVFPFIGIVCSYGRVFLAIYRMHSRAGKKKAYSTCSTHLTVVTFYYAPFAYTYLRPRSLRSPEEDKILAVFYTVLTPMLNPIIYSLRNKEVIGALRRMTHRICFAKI
Method in brief: as §1

[5] = target: T5, UniProt Q8VGL0
T5 sequence (whole entry): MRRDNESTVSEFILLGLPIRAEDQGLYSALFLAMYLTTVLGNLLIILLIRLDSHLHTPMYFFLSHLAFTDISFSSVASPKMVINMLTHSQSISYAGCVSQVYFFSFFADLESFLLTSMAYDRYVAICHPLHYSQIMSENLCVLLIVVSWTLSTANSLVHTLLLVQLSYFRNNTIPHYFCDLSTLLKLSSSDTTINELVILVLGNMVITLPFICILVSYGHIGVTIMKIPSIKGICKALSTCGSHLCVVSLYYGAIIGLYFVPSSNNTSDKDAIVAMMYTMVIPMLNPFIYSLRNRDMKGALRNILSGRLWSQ
Method in brief: as §1

[6] = target: T6, UniProt Q8VGL7
T6 sequence (whole entry): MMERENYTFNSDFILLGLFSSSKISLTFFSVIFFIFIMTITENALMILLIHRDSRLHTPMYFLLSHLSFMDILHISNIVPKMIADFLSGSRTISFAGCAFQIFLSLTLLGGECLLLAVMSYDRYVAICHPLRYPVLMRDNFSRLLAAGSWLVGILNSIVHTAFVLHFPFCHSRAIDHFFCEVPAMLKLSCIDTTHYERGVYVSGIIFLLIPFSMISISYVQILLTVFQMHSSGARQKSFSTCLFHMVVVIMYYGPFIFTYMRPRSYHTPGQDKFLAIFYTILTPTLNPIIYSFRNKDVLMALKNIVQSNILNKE
Method in brief: as §1

[7] = target: T7, UniProt Q8VGM2
T7 sequence (whole entry): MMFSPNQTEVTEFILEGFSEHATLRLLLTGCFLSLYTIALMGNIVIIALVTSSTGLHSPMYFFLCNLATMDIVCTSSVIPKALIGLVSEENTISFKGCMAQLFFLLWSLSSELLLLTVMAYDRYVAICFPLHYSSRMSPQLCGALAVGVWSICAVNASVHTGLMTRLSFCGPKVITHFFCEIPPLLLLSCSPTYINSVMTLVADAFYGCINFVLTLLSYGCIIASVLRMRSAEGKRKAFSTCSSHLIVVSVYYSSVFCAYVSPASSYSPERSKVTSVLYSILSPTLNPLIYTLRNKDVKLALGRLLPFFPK
Method in brief: as §1

[8] = target: T8, UniProt Q8VGP6
T8 sequence (whole entry): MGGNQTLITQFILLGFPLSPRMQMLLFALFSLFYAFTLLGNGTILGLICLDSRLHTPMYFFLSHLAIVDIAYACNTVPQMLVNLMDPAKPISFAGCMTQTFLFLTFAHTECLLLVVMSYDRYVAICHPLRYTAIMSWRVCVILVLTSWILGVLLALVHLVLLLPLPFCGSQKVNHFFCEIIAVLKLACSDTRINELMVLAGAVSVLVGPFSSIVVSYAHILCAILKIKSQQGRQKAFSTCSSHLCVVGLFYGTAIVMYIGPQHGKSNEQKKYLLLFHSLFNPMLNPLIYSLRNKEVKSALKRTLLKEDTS
Method in brief: as §1

[9] = target: T9, UniProt Q8VGQ3
T9 sequence (whole entry): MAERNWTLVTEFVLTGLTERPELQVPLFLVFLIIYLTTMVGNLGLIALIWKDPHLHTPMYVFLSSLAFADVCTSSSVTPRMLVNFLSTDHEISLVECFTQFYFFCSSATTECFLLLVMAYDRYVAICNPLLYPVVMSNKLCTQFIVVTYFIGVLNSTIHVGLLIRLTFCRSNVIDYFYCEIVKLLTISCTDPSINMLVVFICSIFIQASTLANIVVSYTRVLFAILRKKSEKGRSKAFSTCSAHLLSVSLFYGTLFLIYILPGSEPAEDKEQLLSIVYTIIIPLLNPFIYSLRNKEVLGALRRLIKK
Method in brief: as §1

[10] = target: T10, UniProt Q8VGT4
T10 sequence (whole entry): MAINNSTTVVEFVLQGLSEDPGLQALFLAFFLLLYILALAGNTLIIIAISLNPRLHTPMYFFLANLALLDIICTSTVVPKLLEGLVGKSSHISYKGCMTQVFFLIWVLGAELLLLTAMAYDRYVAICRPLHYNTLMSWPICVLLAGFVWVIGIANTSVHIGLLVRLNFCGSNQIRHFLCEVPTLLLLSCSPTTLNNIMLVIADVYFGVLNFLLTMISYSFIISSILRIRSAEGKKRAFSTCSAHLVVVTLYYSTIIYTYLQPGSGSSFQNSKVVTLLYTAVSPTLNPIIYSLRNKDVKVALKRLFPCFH
Method in brief: as §1

[11] = target: T11, UniProt Q8VGU3
T11 sequence (whole entry): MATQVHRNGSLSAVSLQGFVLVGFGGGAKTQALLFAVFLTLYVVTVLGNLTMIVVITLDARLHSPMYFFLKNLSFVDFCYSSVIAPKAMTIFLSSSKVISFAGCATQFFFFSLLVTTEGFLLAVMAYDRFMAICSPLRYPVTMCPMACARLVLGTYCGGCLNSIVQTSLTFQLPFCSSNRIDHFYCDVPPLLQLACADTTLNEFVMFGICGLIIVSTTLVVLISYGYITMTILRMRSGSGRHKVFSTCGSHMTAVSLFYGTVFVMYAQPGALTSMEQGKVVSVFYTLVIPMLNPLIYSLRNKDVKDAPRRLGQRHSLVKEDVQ
Method in brief: as §1

[12] = target: T12, UniProt Q8VGV1
T12 sequence (whole entry): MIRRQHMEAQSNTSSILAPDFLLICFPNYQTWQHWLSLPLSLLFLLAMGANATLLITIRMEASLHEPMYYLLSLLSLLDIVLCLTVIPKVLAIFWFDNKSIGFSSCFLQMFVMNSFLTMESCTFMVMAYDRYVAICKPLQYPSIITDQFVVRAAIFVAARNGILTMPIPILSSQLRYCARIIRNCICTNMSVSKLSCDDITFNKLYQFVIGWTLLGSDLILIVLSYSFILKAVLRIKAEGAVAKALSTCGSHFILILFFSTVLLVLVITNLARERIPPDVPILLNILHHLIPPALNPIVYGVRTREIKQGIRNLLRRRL
Method in brief: as §1

[13] = target: T13, UniProt Q8VGV7
T13 sequence (whole entry): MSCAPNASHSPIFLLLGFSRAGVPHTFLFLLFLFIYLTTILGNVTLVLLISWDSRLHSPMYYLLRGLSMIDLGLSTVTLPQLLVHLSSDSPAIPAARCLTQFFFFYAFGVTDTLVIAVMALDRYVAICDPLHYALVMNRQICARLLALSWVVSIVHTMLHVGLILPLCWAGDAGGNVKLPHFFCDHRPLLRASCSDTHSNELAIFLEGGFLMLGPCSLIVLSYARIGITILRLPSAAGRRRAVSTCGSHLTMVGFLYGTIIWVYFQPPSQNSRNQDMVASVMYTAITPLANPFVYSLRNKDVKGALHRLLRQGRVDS
Method in brief: as §1

[14] = target: T14, UniProt Q8VGW5
T14 sequence (whole entry): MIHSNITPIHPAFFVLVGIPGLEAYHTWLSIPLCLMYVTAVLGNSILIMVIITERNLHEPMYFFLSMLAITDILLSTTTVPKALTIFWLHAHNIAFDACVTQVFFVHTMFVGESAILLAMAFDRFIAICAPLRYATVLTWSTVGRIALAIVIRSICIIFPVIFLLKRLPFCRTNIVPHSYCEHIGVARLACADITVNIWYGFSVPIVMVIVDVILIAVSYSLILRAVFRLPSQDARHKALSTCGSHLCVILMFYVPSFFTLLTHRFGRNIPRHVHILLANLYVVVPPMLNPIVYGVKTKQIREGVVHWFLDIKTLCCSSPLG
Method in brief: as §1

[15] = target: T15, UniProt Q8VGX3
T15 sequence (whole entry): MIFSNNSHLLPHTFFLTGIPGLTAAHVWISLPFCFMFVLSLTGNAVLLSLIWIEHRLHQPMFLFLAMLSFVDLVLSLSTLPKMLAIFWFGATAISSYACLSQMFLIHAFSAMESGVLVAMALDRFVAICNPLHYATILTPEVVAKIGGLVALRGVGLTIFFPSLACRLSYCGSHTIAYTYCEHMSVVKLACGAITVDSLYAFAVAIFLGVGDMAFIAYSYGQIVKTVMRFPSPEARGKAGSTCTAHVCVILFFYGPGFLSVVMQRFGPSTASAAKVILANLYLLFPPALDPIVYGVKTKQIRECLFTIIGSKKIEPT
Method in brief: as §1

[16] = target: T16, UniProt Q8VGX5
T16 sequence (whole entry): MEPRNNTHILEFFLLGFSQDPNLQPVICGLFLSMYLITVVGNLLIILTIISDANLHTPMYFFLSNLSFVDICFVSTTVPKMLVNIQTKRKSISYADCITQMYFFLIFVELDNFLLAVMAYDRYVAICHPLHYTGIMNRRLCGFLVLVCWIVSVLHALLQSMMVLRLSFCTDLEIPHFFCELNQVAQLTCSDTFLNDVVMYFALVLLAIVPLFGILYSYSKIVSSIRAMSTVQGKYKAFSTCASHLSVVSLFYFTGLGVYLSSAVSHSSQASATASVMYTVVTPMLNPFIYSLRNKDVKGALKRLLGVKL
Method in brief: as §1

[17] = target: T17, UniProt Q8VGX8
T17 sequence (whole entry): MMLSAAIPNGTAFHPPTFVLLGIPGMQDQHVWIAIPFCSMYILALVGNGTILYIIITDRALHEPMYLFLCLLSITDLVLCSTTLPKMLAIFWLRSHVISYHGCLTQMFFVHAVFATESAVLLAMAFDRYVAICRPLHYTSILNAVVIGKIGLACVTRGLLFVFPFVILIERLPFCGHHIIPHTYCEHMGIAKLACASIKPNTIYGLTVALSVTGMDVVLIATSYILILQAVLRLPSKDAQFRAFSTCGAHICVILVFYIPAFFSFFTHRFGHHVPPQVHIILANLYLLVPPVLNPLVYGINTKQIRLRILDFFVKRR
Method in brief: as §1

[18] = target: T18, UniProt Q8VGY6
T18 sequence (whole entry): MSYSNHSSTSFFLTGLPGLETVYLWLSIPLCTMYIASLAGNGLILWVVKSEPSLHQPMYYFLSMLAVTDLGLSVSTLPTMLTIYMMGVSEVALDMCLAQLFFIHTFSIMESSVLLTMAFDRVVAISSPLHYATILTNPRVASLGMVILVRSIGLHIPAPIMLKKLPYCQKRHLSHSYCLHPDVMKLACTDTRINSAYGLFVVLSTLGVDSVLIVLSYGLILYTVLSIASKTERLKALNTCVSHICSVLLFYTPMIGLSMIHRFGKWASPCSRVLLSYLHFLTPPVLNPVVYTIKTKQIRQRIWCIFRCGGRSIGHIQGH
Method in brief: as §1

[19] = target: T19, UniProt Q8VGZ2
T19 sequence (whole entry): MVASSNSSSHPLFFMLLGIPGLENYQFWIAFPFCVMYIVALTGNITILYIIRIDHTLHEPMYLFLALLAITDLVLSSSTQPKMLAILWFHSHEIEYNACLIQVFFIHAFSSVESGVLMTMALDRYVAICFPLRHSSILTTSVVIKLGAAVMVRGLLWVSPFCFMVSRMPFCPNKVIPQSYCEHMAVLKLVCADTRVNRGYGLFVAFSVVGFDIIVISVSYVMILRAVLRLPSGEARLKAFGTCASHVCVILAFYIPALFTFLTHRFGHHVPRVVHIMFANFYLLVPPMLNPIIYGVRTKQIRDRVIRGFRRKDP
Method in brief: as §1

Measured: odorant receptor agonist call;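 note: active if original authors judged signal statistically different from baseline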

CCCCCC(=O)O
inactive: all assays above

CC(C)C=O
inactive: [3] | [5] | [11] | [13] | [15] | [16] | [19]

O=C1CCCCCCCCCCCCCCO1
inactive: [3] | [5] | [11] | [13] | [15] | [16] | [19]
